# Assay results published in US20250057960A1, “OLIGOSACCHARIDE COMPLEXES AND USES” (BioNTech SE, priority 2021, published 2025).
# At least one structure is not confirmed: it was looked up by name or label, or the drawing left a doubt.
# Test system: hPBMCs
# Assay: Secretion of pro-inflammatory cytokines and chemokines in hPBMCs after transfection with modRNA formulations (Example 10)
# Assay type: cell-based, human
# Settings: 24 hours
# Description: The present example provides complexes comprising a third component which can inhibit the immune response against the expressed protein from the delivered RNA, avoiding pro-inflammatory signals that can hamper the therapeutic effect of RNA-therapy. In the present experiment, a TLR4 inhibitor molecule, TAK-242, was used alone or together with a wide spectrum immunosuppressor, dexamethasone, in combination with cationic oligosaccharides described herein+Tween40 to formulate modRNA encoding for luciferase.
# In the first part of the experiment, secretion of pro-inflammatory cytokines in hPBMCs was evaluated for two different cationic oligosaccharides: JLF218 and PRX093, whereas different combinations including TAK-242 and/or Dexamethasone are tested. […] IL-6, TNF-α, IL-1β, IFN-γ, MIP-1β, IP-10 and MCP-1 secretion after 24 hours of transfection of 5×105 hPMBCs was evaluated in the supernatants using MSD Kit Standard Protocol. Primary human hepatocytes were transfected with a dose variation between 0.01-1 μg of modRNA and luciferase expression is evaluated over the course of 6 days.
# FIG. 10A is a scatter plot illustrating quantified IL-6 secretion in hPBMCs upon exposure to different doses of tested formulations. FIG. 10B is a scatter plot illustrating quantified TNF-α secretion in hPBMCs upon exposure to different doses of tested formulations. […]
smiles,measurement,setting,value
C[C@@H]1C[C@H]2[C@@H]3CCC4=CC(=O)C=C[C@]4(C)[C@@]3(F)[C@@H](O)C[C@]2(C)[C@@]1(O)C(=O)CO [dexamethasone],"secretion of pro-inflammatory chemokines (MCP-1, MIP-1β, IP-10)","addition of dexamethasone to cationic oligosaccharide+Tween40+TAK-242 modRNA complex, relative to TAK-242 alone, FIGS. 10E to 10G",improved effect
same,TNFα secretion,"dexamethasone incorporated with TAK-242 into cationic oligosaccharide+Tween40 modRNA complex (1:0.5:0.5:0.5), N/P6, FIG. 10B",only a marginal effect
